Measured values taken from US9550078B2 (CAREGEN CO., LTD., priority 2011, dated 2017).
Where no end group is shown, it is not given here.

Assay: general procedure: peptide synthesis; CTL resin
Conditions: whole synthesis

NMSKHTTFFGA
crude mass: 0.85 g | crude yield (scale of the general procedure 700 mg resin): 89.9%
